No constants are given. Whether binding was seen depends on the method and setting. Binding seen in cells or lysates may run through a third protein. Some entries that bind do so weakly or less than the wild type.

For experiment [1], the target named is T1, K+/Cl- cotransporter 2 (KCC2) (mouse (endogenous in mouse brain)) (UniProt Q91V14).
T1 sequence: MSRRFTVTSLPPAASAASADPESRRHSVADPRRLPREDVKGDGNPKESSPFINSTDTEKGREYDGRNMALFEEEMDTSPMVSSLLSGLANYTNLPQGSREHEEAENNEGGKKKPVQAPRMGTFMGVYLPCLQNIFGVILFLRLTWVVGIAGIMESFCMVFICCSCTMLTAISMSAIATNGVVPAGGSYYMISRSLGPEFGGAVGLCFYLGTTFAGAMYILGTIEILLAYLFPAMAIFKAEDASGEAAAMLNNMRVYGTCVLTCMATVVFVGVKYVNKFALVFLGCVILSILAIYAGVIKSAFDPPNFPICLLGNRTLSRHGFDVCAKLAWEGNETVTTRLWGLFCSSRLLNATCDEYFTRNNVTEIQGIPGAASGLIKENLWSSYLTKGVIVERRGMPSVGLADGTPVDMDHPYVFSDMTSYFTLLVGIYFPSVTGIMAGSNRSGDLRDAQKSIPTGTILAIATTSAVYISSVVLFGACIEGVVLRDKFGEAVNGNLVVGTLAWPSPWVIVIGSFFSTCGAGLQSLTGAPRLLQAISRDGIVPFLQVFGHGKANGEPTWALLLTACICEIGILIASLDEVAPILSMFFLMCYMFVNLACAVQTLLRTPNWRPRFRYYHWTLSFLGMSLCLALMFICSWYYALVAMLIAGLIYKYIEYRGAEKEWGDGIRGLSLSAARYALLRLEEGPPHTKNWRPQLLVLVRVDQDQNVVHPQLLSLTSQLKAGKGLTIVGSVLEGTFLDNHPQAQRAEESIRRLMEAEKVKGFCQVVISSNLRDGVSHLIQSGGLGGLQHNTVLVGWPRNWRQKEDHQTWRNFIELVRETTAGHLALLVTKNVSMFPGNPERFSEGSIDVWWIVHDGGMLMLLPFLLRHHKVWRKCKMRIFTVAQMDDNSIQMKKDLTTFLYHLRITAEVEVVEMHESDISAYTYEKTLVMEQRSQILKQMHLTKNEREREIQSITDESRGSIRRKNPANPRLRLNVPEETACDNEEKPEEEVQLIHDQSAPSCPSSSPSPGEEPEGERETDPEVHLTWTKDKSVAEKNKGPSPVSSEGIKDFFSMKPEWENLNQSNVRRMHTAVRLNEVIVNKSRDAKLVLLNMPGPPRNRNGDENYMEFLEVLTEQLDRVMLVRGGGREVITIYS
In words: co-IP; whole tissue homogenate from newborn (P0) mouse hippocampus in non-denaturing lysis buffer; 500 ug protein, precleared; anti-KCC2, anti-SLC4A4 or mouse IgG on protein A-Sepharose beads, overnight at 4°C; immunoblot. (In general: A western blot detects proteins with antibodies after separation by electrophoresis.)

Experiment [2] has as its target T1, K+/Cl- cotransporter 2 (KCC2) (mouse (endogenous in mouse brain)). Kind of experiment: co-IP; crude membranes from 3-5 month-old mouse whole brain in non-denaturing lysis buffer (50 mM Tris-HCl pH 7.4, 300 mM NaCl, 5 mM EDTA, Triton X-100); 500 ug protein, precleared; anti-KCC2, anti-SLC4A4 or mouse IgG on protein A-Sepharose beads, overnight at 4°C; immunoblot.

Experiment [3] concerns the target T2, electrogenic Na+/HCO3- cotransporter 1 (NBCe1) (mouse (endogenous in mouse brain)) (UniProt O88343).
T2 sequence: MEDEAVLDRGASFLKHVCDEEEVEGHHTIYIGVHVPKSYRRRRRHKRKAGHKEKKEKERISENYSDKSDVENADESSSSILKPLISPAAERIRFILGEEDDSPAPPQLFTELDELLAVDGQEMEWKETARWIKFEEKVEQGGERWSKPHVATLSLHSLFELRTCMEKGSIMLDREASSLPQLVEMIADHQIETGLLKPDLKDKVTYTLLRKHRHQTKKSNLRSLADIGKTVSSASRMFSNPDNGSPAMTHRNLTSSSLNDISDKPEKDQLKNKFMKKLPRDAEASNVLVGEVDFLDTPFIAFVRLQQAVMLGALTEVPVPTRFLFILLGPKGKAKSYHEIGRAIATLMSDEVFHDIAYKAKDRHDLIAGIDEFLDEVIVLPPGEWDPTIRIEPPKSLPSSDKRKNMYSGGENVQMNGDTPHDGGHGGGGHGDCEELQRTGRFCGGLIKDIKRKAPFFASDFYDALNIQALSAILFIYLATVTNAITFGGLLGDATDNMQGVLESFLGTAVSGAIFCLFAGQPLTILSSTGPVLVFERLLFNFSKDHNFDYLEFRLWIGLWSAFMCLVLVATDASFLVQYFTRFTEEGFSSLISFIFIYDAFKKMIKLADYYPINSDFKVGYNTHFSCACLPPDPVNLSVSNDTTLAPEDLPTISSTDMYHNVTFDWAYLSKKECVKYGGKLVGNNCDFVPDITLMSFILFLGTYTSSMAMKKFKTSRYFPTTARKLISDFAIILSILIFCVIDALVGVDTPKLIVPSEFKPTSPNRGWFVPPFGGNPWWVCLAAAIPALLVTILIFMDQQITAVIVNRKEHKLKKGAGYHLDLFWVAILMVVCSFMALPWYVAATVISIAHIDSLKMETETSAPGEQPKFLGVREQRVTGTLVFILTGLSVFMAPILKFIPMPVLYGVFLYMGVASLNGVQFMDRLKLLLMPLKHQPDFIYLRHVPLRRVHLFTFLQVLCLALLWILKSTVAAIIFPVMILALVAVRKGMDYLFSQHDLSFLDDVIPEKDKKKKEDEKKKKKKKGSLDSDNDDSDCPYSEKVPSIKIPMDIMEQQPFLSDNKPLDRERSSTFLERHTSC
Kind of experiment: co-IP; whole tissue homogenate from newborn (P0) mouse hippocampus in non-denaturing lysis buffer; 500 ug protein, precleared; anti-KCC2, anti-SLC4A4 or mouse IgG on protein A-Sepharose beads, overnight at 4°C; immunoblot.

The target of experiment [4] is T2, electrogenic Na+/HCO3- cotransporter 1 (NBCe1) (mouse (endogenous in mouse brain)). Kind of experiment: co-IP; crude membranes from 3-5 month-old mouse whole brain in non-denaturing lysis buffer (50 mM Tris-HCl pH 7.4, 300 mM NaCl, 5 mM EDTA, Triton X-100); 500 ug protein, precleared; anti-KCC2, anti-SLC4A4 or mouse IgG on protein A-Sepharose beads, overnight at 4°C; immunoblot.

B1: electrogenic Na+/HCO3- cotransporter 1 (NBCe1) (protein, UniProt O88343 1-1079)
chain: T2 sequence
Take B1: the binding result in experiment [1] and in experiment [2] was “binds” throughout.

B2: K+/Cl- cotransporter 2 (KCC2) (protein, UniProt Q91V14 1-1138)
chain: T1 sequence
In the case of B2, the binding entry in experiment [3] and in experiment [4] was “binds” throughout.
